Earlier results as cited in US12357536B2, “Containers with selective dissolved gas content” (BAXTER INTERNATIONAL INC., priority 2021, dated 2025).
Read-outs that look alike come from different tables or passages of the source. Further values from the same series stand in other lists.

Conditions: 760 mm Hg, salinity 0.0 ppt, cited from earlier work

O=O [oxygen]
Solubility of oxygen (0.0 °C): 14.602 ppm
Solubility of oxygen (0.2 °C): 14.520 ppm
Solubility of oxygen (0.4 °C): 14.438 ppm
Solubility of oxygen (0.6 °C): 14.358 ppm
Solubility of oxygen (0.8 °C): 14.278 ppm
Solubility of oxygen (1.0 °C): 14.198 ppm
Solubility of oxygen (1.2 °C): 14.120 ppm
Solubility of oxygen (1.4 °C): 14.042 ppm
Solubility of oxygen (1.6 °C): 13.969 ppm
Solubility of oxygen (1.8 °C): 13.889 ppm
Solubility of oxygen (2.0 °C): 13.813 ppm
Solubility of oxygen (2.2 °C): 13.738 ppm
Solubility of oxygen (2.4 °C): 13.664 ppm
Solubility of oxygen (2.6 °C): 13.591 ppm
Solubility of oxygen (2.8 °C): 13.518 ppm
Solubility of oxygen (23.0 °C): 8.560 ppm
Solubility of oxygen (23.2 °C): 8.528 ppm
Solubility of oxygen (23.4 °C): 8.495 ppm
Solubility of oxygen (23.6 °C): 8.463 ppm
Solubility of oxygen (23.8 °C): 8.431 ppm
Solubility of oxygen (24.0 °C): 8.400 ppm
Solubility of oxygen (24.2 °C): 8.368 ppm
Solubility of oxygen (24.4 °C): 8.337 ppm
Solubility of oxygen (24.6 °C): 8.306 ppm
Solubility of oxygen (24.8 °C): 8.275 ppm
Solubility of oxygen (25.0 °C): 8.244 ppm
Solubility of oxygen (25.2 °C): 9.214 ppm
Solubility of oxygen (25.4 °C): 8.184 ppm
Solubility of oxygen (25.6 °C): 8.153 ppm
Solubility of oxygen (25.8 °C): 8.124 ppm
Solubility of oxygen (26.0 °C): 8.094 ppm
Solubility of oxygen (26.2 °C): 8.065 ppm
Solubility of oxygen (26.4 °C): 8.035 ppm
Solubility of oxygen (26.6 °C): 8.006 ppm
Solubility of oxygen (26.8 °C): 7.977 ppm
Solubility of oxygen (27.0 °C): 7.949 ppm
Solubility of oxygen (27.2 °C): 7.920 ppm
Solubility of oxygen (27.4 °C): 7.892 ppm
Solubility of oxygen (27.6 °C): 7.864 ppm
Solubility of oxygen (27.8 °C): 7.836 ppm
Solubility of oxygen (28.0 °C): 7.808 ppm
Solubility of oxygen (28.2 °C): 7.780 ppm
Solubility of oxygen (28.4 °C): 7.753 ppm
Solubility of oxygen (28.6 °C): 7.725 ppm
Solubility of oxygen (28.8 °C): 7.698 ppm
Solubility of oxygen (29.0 °C): 7.671 ppm
Solubility of oxygen (29.2 °C): 7.645 ppm
Solubility of oxygen (29.4 °C): 7.618 ppm
Solubility of oxygen (29.6 °C): 7.592 ppm
Solubility of oxygen (29.8 °C): 7.565 ppm
